# Publication PMC12069552, “Root stem cell homeostasis in Arabidopsis involves cell-type specific transcription factor complexes” (EMBO Reports, 2025)
# By UniProt entry, the sequences of proteins in these tests, tags left out. Where a name states a change or a piece, a line headed by the entry shows the natural chain unless it says otherwise.
# UniProt Q9LN63: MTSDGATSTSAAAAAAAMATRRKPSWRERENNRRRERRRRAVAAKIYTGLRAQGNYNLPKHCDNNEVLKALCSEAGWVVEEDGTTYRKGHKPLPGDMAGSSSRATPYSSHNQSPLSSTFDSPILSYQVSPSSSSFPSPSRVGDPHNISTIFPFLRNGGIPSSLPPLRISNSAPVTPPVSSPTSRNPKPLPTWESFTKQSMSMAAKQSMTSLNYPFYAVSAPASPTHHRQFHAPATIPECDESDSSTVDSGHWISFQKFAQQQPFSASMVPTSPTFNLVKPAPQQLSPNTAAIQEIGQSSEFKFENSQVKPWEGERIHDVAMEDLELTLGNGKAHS
# UniProt Q9ZNS0: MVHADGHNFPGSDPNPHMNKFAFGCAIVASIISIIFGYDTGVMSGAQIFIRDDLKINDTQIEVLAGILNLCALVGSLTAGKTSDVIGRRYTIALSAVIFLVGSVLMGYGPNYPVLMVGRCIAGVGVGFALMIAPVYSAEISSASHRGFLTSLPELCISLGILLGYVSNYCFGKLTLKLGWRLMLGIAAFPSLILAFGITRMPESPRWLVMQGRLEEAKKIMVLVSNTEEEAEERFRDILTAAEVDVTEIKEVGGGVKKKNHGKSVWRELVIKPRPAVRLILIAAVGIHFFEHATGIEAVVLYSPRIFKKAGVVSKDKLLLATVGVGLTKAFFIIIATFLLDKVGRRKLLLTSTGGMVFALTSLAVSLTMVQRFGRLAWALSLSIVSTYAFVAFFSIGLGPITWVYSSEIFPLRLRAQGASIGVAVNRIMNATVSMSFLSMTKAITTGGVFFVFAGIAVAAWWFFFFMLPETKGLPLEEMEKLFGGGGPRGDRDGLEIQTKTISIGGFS
# UniProt Q52QU2: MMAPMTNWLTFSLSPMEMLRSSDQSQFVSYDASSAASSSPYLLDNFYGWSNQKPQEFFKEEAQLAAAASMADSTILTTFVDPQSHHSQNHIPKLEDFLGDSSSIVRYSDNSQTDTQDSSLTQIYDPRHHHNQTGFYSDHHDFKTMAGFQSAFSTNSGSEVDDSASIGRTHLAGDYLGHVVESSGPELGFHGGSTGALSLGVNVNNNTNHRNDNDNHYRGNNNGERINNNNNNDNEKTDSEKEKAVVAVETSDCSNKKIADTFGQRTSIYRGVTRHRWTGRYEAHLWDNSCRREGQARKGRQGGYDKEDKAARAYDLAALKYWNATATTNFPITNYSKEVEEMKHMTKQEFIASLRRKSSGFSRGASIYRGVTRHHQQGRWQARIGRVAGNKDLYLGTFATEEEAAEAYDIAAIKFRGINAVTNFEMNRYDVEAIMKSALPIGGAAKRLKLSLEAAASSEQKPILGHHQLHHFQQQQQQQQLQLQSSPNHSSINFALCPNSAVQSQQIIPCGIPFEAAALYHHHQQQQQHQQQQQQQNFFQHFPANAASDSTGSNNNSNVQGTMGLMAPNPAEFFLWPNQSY
# What was measured:
# [1] = target: BES1D-mVenus (Arabidopsis thaliana) (UniProt Q9LN63); experiment: FRET or BRET; FRET-FLIM in nuclei of transiently expressing N. benthamiana epidermal leaf cells; mVenus fusion as donor, mCherry fusion as acceptor; 'binding' [%] is the amplitude of the FRET component (number of donor molecules undergoing FRET); binding cutoff 10%; a binding not significantly different from the negative control (mCherry-NLS) is regarded as no interaction
# TPL-mVenus = target: T1, TPL-mVenus (Arabidopsis thaliana, UniProt Q94AI7 1-1131); experiment: as above
# T1 construct: TOPLESS (TPL) of Arabidopsis thaliana; the CDS amplified from cDNA; FRET donor; source: N. benthamiana abaxial epidermal leaf cells, transiently expressed (β-estradiol inducible), in cells
# T1 sequence (looked up): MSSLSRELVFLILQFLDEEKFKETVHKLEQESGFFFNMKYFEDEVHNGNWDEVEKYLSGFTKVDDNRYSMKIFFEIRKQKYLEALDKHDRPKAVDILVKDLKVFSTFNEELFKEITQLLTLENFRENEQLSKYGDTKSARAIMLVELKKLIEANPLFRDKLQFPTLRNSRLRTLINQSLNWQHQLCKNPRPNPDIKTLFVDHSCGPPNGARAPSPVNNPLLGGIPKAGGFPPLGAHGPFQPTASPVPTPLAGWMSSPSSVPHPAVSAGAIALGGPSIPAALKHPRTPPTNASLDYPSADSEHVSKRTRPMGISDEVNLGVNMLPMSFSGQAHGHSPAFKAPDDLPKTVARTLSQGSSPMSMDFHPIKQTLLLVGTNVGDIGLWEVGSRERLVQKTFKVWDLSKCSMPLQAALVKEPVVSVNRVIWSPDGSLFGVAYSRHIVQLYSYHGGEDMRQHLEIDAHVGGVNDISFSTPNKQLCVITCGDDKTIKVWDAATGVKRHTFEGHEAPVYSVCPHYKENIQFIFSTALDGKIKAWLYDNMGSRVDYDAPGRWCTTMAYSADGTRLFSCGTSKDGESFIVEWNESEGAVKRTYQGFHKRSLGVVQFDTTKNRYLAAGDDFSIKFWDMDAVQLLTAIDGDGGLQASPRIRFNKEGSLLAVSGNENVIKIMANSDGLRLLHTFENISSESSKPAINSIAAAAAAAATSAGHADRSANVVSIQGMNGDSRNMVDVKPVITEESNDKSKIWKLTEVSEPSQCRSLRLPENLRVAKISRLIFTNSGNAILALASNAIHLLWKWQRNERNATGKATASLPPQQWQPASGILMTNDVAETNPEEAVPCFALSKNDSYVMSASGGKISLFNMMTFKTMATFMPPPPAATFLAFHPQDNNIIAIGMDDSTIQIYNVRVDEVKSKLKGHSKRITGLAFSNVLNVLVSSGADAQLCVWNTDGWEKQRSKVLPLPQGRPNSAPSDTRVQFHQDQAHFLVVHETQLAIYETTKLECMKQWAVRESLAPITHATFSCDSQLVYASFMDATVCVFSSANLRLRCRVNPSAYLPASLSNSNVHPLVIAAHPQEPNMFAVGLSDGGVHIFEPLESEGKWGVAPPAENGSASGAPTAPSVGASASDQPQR
# [2] = target: T2, WOX5-mV(N) (Arabidopsis thaliana) (UniProt Q8H1D2); experiment: split reporter; reconstitution of mVenus fluorescence from mV(N) and mV(C) fusions co-expressed in N. benthamiana epidermal leaf cells, used as donor for FRET-FLIM
# T2 sequence: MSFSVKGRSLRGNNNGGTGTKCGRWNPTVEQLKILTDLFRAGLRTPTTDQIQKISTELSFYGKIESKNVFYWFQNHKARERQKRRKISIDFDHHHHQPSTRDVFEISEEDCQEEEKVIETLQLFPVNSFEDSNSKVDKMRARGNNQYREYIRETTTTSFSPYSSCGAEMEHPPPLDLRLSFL
# [3] = target: T3, BRAVO-mV(N) (Arabidopsis thaliana) (UniProt Q6R053); experiment: as above
# T3 sequence: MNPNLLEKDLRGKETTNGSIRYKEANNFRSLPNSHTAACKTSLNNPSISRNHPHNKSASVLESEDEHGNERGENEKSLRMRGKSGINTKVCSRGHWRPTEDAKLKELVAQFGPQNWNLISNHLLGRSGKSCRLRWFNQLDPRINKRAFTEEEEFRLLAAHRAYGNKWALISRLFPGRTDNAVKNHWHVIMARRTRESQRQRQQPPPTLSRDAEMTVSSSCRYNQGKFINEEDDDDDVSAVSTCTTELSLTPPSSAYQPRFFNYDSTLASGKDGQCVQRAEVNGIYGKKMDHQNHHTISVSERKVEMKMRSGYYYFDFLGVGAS
Substance,binding [1],binding (TPL-mVenus),binding [2],binding [3]
PLT3ΔPrD-mCherry (from UniProt Q9ZNS0),no binding,no binding,–,–
PLT3-mV(C) (from UniProt Q52QU2),–,–,binds,binds

# Results are given in words; binding and its absence hold for the method and conditions named. In cells and extracts the contact can be indirect. For some of these results: Binding can be weak; no strength is given.
